This is one part of the list.
Columns and labels:
Experiment in all cases: log2 fold change, soluble protein after heating vs DMSO (PISA); higher = thermal stabilisation; K562 lysate, 10 uM; active = over 0.2 and 3.5 SD of the protein, either way, in both replicates (recomputed)
[1] = compound: CS(=O)(=O)CCNCc1ccc(-c2ccc3ncnc(Nc4ccc(OCc5cccc(F)c5)c(Cl)c4)c3c2)o1 [lapatinib]
Outline: (§1)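 K562 pellets were dounce-homogenised in PBS pH 7.4 containing 1 mM MgCl2, and the crude extract, at 1 mg/mL protein, was exposed to 10 μM compound for 30 min. Aliquots were heated for 3 min across 48°C-58°C, pooled, brought to 0.5% NP-40 at 4°C and spun at 21,000xg for 90 min, with the supernatant taken as soluble protein. TMTpro 16plex LC-MS/MS with equalised channel sums quantified that protein. Values are log-two fold changes in thermal stability relative to solvent controls, taken from duplicates.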

Protein sequences, listed by entry. Tags and fused reporters are not part of them. Lines headed by an entry give the natural chain unless they say otherwise; changes in a name come on top.
UniProt Q9UPQ9, whole entry, looked up: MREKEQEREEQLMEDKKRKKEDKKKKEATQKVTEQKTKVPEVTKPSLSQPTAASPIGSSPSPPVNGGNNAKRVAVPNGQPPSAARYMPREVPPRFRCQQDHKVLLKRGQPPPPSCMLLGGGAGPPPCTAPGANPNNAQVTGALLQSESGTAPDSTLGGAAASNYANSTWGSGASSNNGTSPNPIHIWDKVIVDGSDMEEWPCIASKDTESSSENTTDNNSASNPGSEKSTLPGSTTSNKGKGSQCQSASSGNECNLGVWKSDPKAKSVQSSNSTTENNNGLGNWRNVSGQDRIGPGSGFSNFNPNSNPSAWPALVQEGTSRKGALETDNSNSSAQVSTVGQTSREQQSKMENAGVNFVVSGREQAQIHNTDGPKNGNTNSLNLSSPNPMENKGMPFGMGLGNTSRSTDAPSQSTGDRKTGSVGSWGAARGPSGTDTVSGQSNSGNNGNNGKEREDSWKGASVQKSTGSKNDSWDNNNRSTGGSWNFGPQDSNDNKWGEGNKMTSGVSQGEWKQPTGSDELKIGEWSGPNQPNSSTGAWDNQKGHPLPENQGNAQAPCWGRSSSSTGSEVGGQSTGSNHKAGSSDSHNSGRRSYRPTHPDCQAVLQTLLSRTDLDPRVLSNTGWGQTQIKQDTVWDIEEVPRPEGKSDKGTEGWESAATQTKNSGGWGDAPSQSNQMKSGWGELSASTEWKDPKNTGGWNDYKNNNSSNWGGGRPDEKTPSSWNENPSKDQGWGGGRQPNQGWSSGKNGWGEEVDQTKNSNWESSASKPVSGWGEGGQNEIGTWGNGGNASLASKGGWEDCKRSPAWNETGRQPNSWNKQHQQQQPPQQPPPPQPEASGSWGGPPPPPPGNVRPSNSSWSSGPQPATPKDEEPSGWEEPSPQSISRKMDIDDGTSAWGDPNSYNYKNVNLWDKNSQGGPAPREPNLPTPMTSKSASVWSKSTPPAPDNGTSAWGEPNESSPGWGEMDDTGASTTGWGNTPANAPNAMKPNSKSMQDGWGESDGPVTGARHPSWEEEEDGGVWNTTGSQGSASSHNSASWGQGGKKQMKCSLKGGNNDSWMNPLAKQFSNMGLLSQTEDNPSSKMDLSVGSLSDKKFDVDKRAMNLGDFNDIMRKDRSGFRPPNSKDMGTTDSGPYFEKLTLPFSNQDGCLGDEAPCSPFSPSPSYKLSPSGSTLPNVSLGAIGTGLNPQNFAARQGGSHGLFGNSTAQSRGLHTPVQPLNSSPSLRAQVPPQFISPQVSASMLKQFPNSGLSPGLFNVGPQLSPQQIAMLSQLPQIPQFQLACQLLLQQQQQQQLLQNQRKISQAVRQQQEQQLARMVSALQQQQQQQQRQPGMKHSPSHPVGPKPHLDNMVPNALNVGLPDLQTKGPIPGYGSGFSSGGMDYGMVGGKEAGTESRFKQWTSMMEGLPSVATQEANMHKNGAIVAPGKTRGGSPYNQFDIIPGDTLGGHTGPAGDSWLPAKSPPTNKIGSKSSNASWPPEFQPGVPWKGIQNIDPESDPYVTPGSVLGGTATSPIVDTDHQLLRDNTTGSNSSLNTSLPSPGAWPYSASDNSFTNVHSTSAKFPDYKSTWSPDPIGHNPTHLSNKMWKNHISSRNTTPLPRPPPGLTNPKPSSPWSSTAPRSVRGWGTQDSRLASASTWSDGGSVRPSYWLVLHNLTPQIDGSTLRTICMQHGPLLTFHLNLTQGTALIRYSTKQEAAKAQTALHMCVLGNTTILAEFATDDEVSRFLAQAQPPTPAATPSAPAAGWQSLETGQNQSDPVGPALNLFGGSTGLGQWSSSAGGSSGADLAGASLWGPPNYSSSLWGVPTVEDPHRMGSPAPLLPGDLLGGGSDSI
UniProt Q6PI78: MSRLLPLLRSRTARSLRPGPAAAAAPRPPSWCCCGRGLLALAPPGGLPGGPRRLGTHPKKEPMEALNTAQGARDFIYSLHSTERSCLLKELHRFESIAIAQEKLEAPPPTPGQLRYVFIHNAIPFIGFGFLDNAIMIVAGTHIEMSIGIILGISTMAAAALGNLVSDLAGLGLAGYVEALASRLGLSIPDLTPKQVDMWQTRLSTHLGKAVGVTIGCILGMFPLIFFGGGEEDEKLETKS
UniProt Q53FA7: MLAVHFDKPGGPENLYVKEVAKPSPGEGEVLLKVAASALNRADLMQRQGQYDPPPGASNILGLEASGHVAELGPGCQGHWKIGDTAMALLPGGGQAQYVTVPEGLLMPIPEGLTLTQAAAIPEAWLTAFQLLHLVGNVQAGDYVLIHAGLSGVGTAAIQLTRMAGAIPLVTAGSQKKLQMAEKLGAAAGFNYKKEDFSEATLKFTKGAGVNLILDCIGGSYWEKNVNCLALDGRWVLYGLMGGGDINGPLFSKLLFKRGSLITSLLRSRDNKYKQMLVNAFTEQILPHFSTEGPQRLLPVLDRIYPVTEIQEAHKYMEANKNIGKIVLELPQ
UniProt Q5BJF2, whole entry, looked up: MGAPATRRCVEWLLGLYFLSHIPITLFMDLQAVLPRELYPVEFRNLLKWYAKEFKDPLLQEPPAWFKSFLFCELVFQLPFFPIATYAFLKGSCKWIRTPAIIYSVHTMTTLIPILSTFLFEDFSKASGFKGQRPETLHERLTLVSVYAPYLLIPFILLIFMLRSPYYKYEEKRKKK
UniProt Q15628: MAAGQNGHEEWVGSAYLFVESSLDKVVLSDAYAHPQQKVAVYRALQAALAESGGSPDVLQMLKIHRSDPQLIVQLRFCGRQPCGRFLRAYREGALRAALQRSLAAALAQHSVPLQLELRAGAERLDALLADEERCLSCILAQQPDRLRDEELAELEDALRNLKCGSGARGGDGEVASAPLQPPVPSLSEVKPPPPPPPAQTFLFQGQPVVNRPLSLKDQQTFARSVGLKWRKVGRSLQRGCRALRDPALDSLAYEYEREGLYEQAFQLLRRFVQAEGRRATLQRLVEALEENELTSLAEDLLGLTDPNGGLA
UniProt Q8NBN3: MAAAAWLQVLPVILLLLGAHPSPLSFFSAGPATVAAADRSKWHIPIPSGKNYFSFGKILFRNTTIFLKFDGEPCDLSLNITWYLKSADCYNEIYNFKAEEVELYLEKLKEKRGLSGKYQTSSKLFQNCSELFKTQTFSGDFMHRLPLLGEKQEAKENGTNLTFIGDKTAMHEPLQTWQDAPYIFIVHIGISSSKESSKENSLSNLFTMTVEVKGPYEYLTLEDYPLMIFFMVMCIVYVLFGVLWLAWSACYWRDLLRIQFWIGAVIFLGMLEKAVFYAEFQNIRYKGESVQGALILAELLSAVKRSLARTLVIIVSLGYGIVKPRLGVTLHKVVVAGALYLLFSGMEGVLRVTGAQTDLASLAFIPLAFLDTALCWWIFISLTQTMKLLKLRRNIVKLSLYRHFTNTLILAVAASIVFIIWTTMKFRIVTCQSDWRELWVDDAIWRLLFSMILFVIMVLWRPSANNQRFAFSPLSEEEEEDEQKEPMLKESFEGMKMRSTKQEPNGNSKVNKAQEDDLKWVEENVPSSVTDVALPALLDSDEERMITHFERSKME
UniProt Q9ULW0, whole entry, looked up: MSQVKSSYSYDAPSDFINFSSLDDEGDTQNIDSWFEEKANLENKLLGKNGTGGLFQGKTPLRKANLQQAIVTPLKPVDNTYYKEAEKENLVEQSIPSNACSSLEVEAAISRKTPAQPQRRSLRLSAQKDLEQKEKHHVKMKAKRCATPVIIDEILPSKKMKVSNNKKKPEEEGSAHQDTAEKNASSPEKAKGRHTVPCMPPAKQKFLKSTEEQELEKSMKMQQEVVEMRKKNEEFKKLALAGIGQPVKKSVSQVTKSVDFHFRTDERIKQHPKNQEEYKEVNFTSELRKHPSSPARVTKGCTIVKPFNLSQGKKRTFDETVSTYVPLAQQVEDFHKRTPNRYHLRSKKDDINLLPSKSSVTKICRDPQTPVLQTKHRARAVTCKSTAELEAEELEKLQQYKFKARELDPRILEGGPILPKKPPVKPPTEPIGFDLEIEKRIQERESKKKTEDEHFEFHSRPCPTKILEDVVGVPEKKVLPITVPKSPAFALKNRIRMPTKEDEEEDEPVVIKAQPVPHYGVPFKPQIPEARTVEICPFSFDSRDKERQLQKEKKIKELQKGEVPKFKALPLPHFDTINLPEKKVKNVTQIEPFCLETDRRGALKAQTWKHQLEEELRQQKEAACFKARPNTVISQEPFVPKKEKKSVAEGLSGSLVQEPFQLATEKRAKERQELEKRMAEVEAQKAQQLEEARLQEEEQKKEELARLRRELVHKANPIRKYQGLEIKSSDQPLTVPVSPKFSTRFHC
UniProt P29144: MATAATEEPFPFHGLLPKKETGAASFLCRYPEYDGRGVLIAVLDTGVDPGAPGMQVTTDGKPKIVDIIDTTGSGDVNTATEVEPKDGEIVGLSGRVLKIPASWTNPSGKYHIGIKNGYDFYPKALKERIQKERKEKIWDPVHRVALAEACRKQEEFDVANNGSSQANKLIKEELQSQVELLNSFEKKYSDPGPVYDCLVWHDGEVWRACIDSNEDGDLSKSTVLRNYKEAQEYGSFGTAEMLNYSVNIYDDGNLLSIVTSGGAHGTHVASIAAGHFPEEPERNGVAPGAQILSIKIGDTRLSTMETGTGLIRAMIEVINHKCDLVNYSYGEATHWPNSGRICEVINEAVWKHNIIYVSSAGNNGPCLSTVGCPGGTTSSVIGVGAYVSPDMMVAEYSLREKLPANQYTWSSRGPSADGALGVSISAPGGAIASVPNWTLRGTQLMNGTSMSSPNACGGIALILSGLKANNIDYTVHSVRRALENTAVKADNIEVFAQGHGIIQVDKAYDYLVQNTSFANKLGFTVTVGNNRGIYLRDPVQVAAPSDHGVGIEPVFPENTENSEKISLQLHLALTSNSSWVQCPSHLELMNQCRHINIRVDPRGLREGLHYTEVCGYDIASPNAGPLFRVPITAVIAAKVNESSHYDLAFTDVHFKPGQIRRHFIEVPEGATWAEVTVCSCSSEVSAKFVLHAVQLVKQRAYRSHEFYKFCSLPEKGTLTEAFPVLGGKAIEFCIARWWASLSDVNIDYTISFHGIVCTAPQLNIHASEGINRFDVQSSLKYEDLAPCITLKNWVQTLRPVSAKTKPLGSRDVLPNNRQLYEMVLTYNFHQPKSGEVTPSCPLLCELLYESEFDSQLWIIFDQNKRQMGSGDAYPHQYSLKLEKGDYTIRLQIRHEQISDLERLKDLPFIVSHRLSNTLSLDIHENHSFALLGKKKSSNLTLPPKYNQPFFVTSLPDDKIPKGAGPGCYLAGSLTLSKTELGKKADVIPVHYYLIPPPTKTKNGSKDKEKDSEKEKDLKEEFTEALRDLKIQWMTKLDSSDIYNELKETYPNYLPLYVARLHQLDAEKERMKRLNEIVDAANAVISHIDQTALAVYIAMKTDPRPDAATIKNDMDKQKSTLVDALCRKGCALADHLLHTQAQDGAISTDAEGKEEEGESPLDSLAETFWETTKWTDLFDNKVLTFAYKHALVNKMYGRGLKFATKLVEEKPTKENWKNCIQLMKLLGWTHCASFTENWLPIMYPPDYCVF
UniProt Q96K49: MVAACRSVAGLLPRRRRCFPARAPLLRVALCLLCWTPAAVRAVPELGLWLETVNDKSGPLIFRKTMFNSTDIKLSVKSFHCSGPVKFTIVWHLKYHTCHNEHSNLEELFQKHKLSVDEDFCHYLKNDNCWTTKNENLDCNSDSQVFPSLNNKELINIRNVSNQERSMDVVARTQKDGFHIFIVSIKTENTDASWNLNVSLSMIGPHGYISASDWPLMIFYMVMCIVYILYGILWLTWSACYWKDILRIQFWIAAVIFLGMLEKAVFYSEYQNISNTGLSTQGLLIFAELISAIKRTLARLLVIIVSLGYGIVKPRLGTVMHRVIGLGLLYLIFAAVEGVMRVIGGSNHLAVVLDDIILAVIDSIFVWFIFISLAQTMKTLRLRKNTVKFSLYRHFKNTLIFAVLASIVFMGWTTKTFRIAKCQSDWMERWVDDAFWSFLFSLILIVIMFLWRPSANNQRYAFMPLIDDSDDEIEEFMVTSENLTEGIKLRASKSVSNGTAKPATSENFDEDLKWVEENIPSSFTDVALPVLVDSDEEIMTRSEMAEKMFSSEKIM
UniProt Q8NFQ8: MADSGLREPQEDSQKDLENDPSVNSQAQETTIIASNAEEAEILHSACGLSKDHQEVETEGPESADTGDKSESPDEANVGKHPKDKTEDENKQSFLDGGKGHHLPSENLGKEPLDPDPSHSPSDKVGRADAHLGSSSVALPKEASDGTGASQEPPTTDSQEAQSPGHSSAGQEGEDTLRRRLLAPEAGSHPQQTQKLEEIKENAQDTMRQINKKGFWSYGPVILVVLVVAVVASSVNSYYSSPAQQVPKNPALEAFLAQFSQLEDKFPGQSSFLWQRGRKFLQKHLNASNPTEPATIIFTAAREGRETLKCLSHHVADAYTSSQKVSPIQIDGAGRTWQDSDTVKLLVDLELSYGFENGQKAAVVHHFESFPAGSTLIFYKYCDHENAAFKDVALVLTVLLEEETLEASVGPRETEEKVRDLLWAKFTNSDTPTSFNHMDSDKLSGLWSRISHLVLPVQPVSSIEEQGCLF

[2] = compound: CS(=O)(=O)N1CCN(Cc2cc3nc(-c4cccc5[nH]ncc45)nc(N4CCOCC4)c3s2)CC1 [pictilisib]
Outline: as §1

[3] = compound: C[C@@H](Oc1cc(-c2cnn(C3CCNCC3)c2)cnc1N)c1c(Cl)ccc(F)c1Cl [crizotinib]
Outline: as §1

[4] = compound: C[C@H](C1=CC=C(C=C1)C(=O)NC2=C3C=CNC3=NC=C2)N
Outline: as §1

[5] = compound: C[C@H](Nc1ncnc2nc[nH]c12)c1cc2cccc(Cl)c2c(=O)n1-c1ccccc1 [duvelisib]
Outline: as §1

[6] = compound: Cc1cc(Nc2cc(CN3CCOCC3)c3nc(C)c(Cc4ccc(Cl)cc4F)n3n2)n[nH]1 [gandotinib]
Outline: as §1

[7] = compound: Cc1cc(Nc2cc(N3CCN(C)CC3)nc(Sc3ccc(NC(=O)C4CC4)cc3)n2)n[nH]1 [tozasertib]
Outline: as §1

[8] = compound: Cc1ccc(-n2nc(C(C)(C)C)cc2NC(=O)Nc2ccc(OCCN3CCOCC3)c3ccccc23)cc1 [doramapimod]
Outline: as §1

[9] = compound: Cc1ccc(NC(=O)c2ccc(CN3CC[C@H](N(C)C)C3)c(C(F)(F)F)c2)cc1Nc1nccc(-c2cncnc2)n1 [bafetinib]
Outline: as §1

[10] = compound: Cc1cccc(CC(=O)N2CCc3c2ccc(-c2cn(C)c4ncnc(N)c24)c3F)n1
Outline: as §1

[11] = compound: Cc1cn(-c2cc(NC(=O)c3ccc(C)c(Nc4nccc(-c5cccnc5)n4)c3)cc(C(F)(F)F)c2)cn1 [nilotinib]
Outline: as §1

[12] = compound: Cc1nc(Nc2n[nH]c3c2CN(C(=O)N[C@H](CN(C)C)c2ccccc2)C3(C)C)c2sccc2n1
Outline: as §1

[13] = compound: Cc1nc(Nc2ncc(C(=O)Nc3c(C)cccc3Cl)s2)cc(N2CCN(CCO)CC2)n1 [dasatinib]
Outline: as §1

[14] = compound: Cc1ncc(-c2ccnc(Nc3ccc(S(C)(=O)=O)cc3)n2)n1C(C)C
Outline: as §1

[15] = compound: Cn1cc(-c2ccc3c(c2)CCN3C(=O)Cc2cccc(C(F)(F)F)c2)c2c(N)ncnc21
Outline: as §1

[16] = compound: Cn1cc(CNCC2CCN(c3ncc(C(=O)NO)cn3)CC2)c2ccccc21 [quisinostat]
Outline: as §1

[17] = compound: Cn1cncc1[C@@](N)(c1ccc(Cl)cc1)c1ccc2c(c1)c(-c1cccc(Cl)c1)cc(=O)n2C [tipifarnib]
Outline: as §1

[18] = compound: NC(=O)Nc1cc(-c2cccc(F)c2)sc1C(=O)N[C@H]1CCCNC1
Outline: as §1

[19] = compound: NC(=O)c1cnc(N[C@@H]2CCCC[C@@H]2N)nc1Nc1cccc(-n2nccn2)c1
Outline: as §1

[20] = compound: NC1(c2ccc(-c3nc4ccn5c(=O)[nH]nc5c4cc3-c3ccccc3)cc2)CCC1
Outline: as §1

Row | Target | log2 fold change [1] | log2 fold change [2] | log2 fold change [3] | log2 fold change [4] | log2 fold change [5] | log2 fold change [6] | log2 fold change [7] | log2 fold change [8] | log2 fold change [9] | log2 fold change [10] | log2 fold change [11] | log2 fold change [12] | log2 fold change [13] | log2 fold change [14] | log2 fold change [15] | log2 fold change [16] | log2 fold change [17] | log2 fold change [18] | log2 fold change [19] | log2 fold change [20]
1 | TNRC6B (UniProt Q9UPQ9) | inactive: 0.004 | inactive: -0.059 | inactive: 0.049 | inactive: -0.02 | inactive: 0.005 | inactive: 0.02 | inactive: -0.043 | inactive: -0.118 | inactive: -0.08 | inactive: 0.005 | inactive: -0.395 | inactive: 0.014 | inactive: 0.01 | inactive: 0.002 | inactive: 0.025 | inactive: 0.021 | inactive: -0.004 | inactive: 0.073 | inactive: 0.005 | inactive: 0.014
2 | TMEM65 (UniProt Q6PI78) | inactive: 0.078 | inactive: 0.009 | inactive: -0.028 | inactive: 0.006 | inactive: 0.022 | inactive: -0.053 | inactive: -0.007 | inactive: 0.012 | inactive: 0.086 | inactive: -0.032 | inactive: -0.199 | inactive: 0.081 | inactive: -0.081 | inactive: -0.118 | inactive: 0.049 | inactive: 0.014 | inactive: -0.154 | inactive: -0.078 | inactive: 0.018 | inactive: -0.016
3 | TPP2 (UniProt Q5VZU9) | inactive: -0.023 | inactive: 0.069 | inactive: -0.057 | active: -0.309 | inactive: 0.02 | inactive: 0.104 | inactive: -0.087 | inactive: -0.029 | inactive: -0.044 | inactive: 0.137 | inactive: 0.066 | inactive: 0.035 | inactive: -0.194 | inactive: -0.015 | inactive: 0.036 | inactive: 0.084 | inactive: -0.001 | inactive: 0.107 | inactive: -0.006 | inactive: -0.039
4 | TRABD (UniProt Q9H4I3) | inactive: 0.058 | inactive: 0.023 | inactive: -0.033 | inactive: -0.07 | inactive: -0.054 | inactive: 0.061 | inactive: 0.005 | inactive: 0.004 | inactive: -0.011 | inactive: 0.06 | inactive: 0.058 | inactive: -0.017 | inactive: 0.072 | inactive: -0.026 | inactive: -0.013 | inactive: 0.006 | inactive: -0.003 | inactive: -0.038 | inactive: 0 | inactive: -0.015
5 | TP53I3 (UniProt Q53FA7) | inactive: -0.013 | inactive: -0.019 | inactive: 0.028 | inactive: -0.035 | inactive: 0.023 | inactive: 0.031 | inactive: 0.007 | inactive: -0.057 | inactive: 0.031 | inactive: -0.049 | inactive: 0 | inactive: -0.042 | inactive: 0.089 | inactive: -0.013 | inactive: -0.017 | inactive: -0.007 | inactive: 0.03 | inactive: 0.031 | inactive: -0.002 | inactive: -0.006
6 | TPM4 isoform 2 (UniProt P67936) | inactive: 0.007 | inactive: 0 | inactive: 0.091 | active: 0.329 | inactive: 0.011 | inactive: -0.138 | inactive: -0.027 | inactive: 0.002 | inactive: 0.075 | inactive: -0.164 | inactive: 0.052 | inactive: -0.048 | inactive: 0.059 | inactive: 0.076 | inactive: -0.011 | inactive: 0.122 | inactive: 0.024 | inactive: -0.039 | inactive: 0.029 | inactive: 0.02
7 | TOMM40 (UniProt O96008) | inactive: -0.004 | inactive: -0.021 | inactive: 0.004 | inactive: -0.061 | inactive: 0.005 | inactive: 0.081 | inactive: -0.004 | inactive: -0.032 | inactive: -0.03 | inactive: 0.044 | inactive: 0.011 | inactive: -0.01 | inactive: 0.003 | inactive: 0.024 | inactive: -0.029 | inactive: -0.025 | inactive: 0.031 | inactive: -0.015 | inactive: -0.019 | inactive: -0.01
8 | TMEM97 (UniProt Q5BJF2) | inactive: -0.052 | inactive: -0.004 | inactive: 0.113 | active: -0.277 | inactive: 0.014 | inactive: 0.17 | inactive: -0.013 | inactive: -0.127 | inactive: -0.015 | inactive: 0.12 | inactive: 0.098 | inactive: 0.053 | inactive: 0.018 | inactive: 0.124 | inactive: -0.005 | inactive: 0.046 | inactive: 0.057 | inactive: 0.011 | inactive: -0.034 | inactive: 0.023
9 | TRADD (UniProt Q15628) | inactive: -0.015 | inactive: -0.011 | inactive: -0.003 | inactive: -0.022 | inactive: -0.081 | inactive: -0.03 | inactive: -0.011 | inactive: -0.022 | inactive: -0.034 | inactive: 0.035 | inactive: 0.009 | inactive: -0.02 | inactive: 0.065 | inactive: -0.013 | inactive: -0.002 | inactive: -0.018 | inactive: 0.053 | inactive: 0.044 | inactive: 0.01 | inactive: 0.041
10 | TMEM87A (UniProt Q8NBN3) | inactive: -0.007 | inactive: -0.015 | inactive: 0.016 | inactive: -0.082 | inactive: 0.012 | active: 0.242 | inactive: -0.029 | inactive: 0.026 | inactive: -0.007 | active: 0.248 | inactive: -0.009 | inactive: 0.055 | inactive: -0.007 | inactive: 0.027 | inactive: 0.03 | inactive: -0.021 | inactive: 0.024 | inactive: 0.003 | inactive: 0.03 | inactive: 0.017
11 | TPX2 (UniProt Q9ULW0) | inactive: 0.008 | inactive: 0.032 | inactive: 0.023 | inactive: 0.01 | inactive: 0.002 | inactive: 0.04 | inactive: -0.003 | inactive: 0.049 | inactive: -0.023 | inactive: -0.011 | inactive: -0.001 | inactive: 0.007 | inactive: -0.002 | inactive: 0.002 | inactive: 0 | inactive: -0.04 | inactive: -0.007 | inactive: -0.021 | inactive: -0.02 | inactive: -0.004
12 | TOPBP1 (UniProt Q92547) | inactive: 0.095 | inactive: -0.037 | inactive: 0.023 | inactive: 0.206 | inactive: -0.03 | inactive: -0.048 | inactive: -0.066 | inactive: 0.056 | inactive: -0.076 | inactive: -0.017 | inactive: 0.013 | inactive: -0.056 | inactive: 0.003 | inactive: 0.006 | inactive: 0.02 | inactive: -0.018 | inactive: 0.049 | inactive: -0.002 | inactive: 0.039 | inactive: -0.007
13 | TPM1 (UniProt H7BYY1) | inactive: 0.028 | inactive: 0.042 | inactive: 0.096 | inactive: 0.063 | inactive: -0.004 | inactive: -0.118 | inactive: 0.012 | inactive: -0.025 | inactive: 0.026 | inactive: -0.158 | inactive: 0.014 | inactive: -0.111 | inactive: -0.023 | inactive: 0.028 | inactive: 0.02 | inactive: 0.101 | inactive: 0.059 | inactive: -0.017 | inactive: 0.013 | inactive: 0.033
14 | TPP2 (UniProt P29144) | inactive: -0.007 | inactive: 0.014 | inactive: -0.009 | inactive: 0.035 | inactive: 0.011 | inactive: -0.011 | inactive: -0.009 | inactive: 0.007 | inactive: -0.008 | inactive: -0.011 | inactive: 0.013 | inactive: -0.005 | inactive: -0.005 | inactive: -0.02 | inactive: 0.019 | inactive: 0.01 | inactive: 0.006 | inactive: 0.013 | inactive: 0 | inactive: 0.003
15 | TMEM87B (UniProt Q96K49) | inactive: -0.044 | inactive: 0.147 | inactive: -0.017 | inactive: 0.004 | inactive: 0.039 | inactive: -0.077 | inactive: 0.068 | inactive: 0.026 | inactive: 0.126 | inactive: 0 | inactive: 0.008 | inactive: 0.086 | inactive: -0.006 | inactive: -0.02 | inactive: 0.023 | inactive: -0.012 | inactive: -0.011 | inactive: -0.016 | inactive: -0.019 | inactive: -0.048
16 | TOR1AIP2 (UniProt Q8NFQ8) | inactive: -0.002 | inactive: -0.024 | inactive: 0.079 | inactive: 0.032 | inactive: -0.029 | inactive: -0.064 | inactive: -0.017 | inactive: 0.027 | inactive: -0.01 | inactive: -0.029 | inactive: -0.104 | inactive: 0.007 | inactive: -0.017 | inactive: -0.012 | inactive: 0.024 | inactive: 0.103 | inactive: 0.026 | inactive: -0.009 | inactive: 0.016 | inactive: 0.025

Some entries already given, reduced to log2 fold change [8], log2 fold change [11] and log2 fold change [17]:
Row	Target	log2 fold change [8]	log2 fold change [11]	log2 fold change [17]
10	TMEM87A (UniProt Q8NBN3)	inactive: 0.026	inactive: -0.009	inactive: 0.024
11	TPX2 (UniProt Q9ULW0)	inactive: 0.049	inactive: -0.001	inactive: -0.007
